Our source for the log values is the supplement of paper PMC7024190.

Where a name gives a salt, the structure may show the parent alone. This is one part of the list. This data set is noisy: repeats of one test often differ as much as different tests do.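 A first-round screen of about ten thousand compounds sought those raising reporter output, using human embryonic kidney cells briefly transfected with a plasmid carrying a Renilla luciferase gene driven by the HSV-TK promoter.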

The test system of the assay is HEK 293FT. Put plainly: log relative Renilla luciferase luminescence (reporter expression vs reference, reference not stated) (log (base not stated)); higher = higher recombinant reporter expression. The note with it: 10 µM; time after transfection 48 h.
For the molecule `CCc1nc(N)nc(N)c1-c1ccc(Cl)cc1` [pyrimethamine], the log turned out to be 0.0583.
Under `C[C@@H]1C[C@H]2[C@@H]3CCC4=CC(=O)C=C[C@]4(C)[C@@]3(Cl)[C@@H](O)C[C@]2(C)[C@@]1(OC(=O)c1ccco1)C(=O)CCl` [mometasone furoate] stands -0.442; under `c1coc(CNc2ncnc3[nH]cnc23)c1` [kinetin], 0.123; under `CCOc1ccc2nc(S(N)(=O)=O)sc2c1` [ethoxzolamide], 0.0797.
Under `O=c1oc2cc(O)ccc2s1` [tioxolone] stands -0.311; under `CC1/C=C/C=C/C=C/C=C/C=C/C=C/C=C/C(OC2O[C@H](C)[C@@H](O)[C@H](N)[C@@H]2O)CC(O)C(C(=O)O)C(O)CC(=O)CC(O)CC(O)CC(O)CC(=O)CCCC(=O)CC(=O)OC1C(C)CC(C)C(O)CC(=O)c1ccc(N)cc1` (stereo partly drawn) [candicidin], -0.149.
As to `C/C(=C\C(=O)OCCCCCCCCC(=O)O)C[C@@H]1OC[C@H](C[C@@H]2O[C@H]2[C@@H](C)[C@H](C)O)[C@@H](O)[C@H]1O` [mupirocin], the log is 0.0654.
Consider `N[C@@H](CSCSC[C@H](N)C(=O)O)C(=O)O` [djenkolic acid], for which the log stood at 0.0182.
`CN/C(=N\CCSCc1nc[nH]c1C)NC#N` [cimetidine]: the log was -0.0611.
For the molecule `O=C(O)c1cc(/N=N/c2ccc(S(=O)(=O)Nc3ccccn3)cc2)ccc1O` [sulfasalazine], the log was -0.0721.
Then `CC(N)CCCC(C)(C)O` (stereo not drawn) [heptaminol hydrochloride], with 0.109; and `CN1CCCN=C1/C=C/c1cccc(O)c1` [oxantel pamoate], with 0.162.
Then `N#CCC(=O)NN` [cyacetacide], with 0.176; and `Oc1cccc(O)c1` [resorcinol], with 0.0391; and `Cc1cc(O)cc(C)c1Cl` [chloroxylenol], with -0.133.
For the molecule `CC(=O)N(c1onc(C)c1C)S(=O)(=O)c1ccc(N)cc1` [sulfisoxazole acetyl], the log is -0.0767.
Then `C=C1CCC(C2CC(=O)OC2=O)C(=O)CCC2C1CC2(C)C` (stereo not drawn), with 0.0544; and `CC=CC1=C(C(=O)O)N2C(=O)[C@@H](NC(=O)[C@H](N)c3ccc(O)cc3)[C@H]2SC1` [cefprozil], with 0.109.
Then `O=C1c2ccccc2C(=O)C1c1ccc(Br)cc1` [bromindione], with 0.0751.
Under `NC(=O)CC[C@H](N)C(=O)O` [glutamine (l)] stands -0.3; under `Cc1cc2c(s1)Nc1ccccc1N=C2N1CCN(C)CC1` [olanzapine], -0.177; under `CC1(C)C(O[C@@H]2OC[C@@H](O)[C@H](O)[C@H]2O)CC[C@]23CC24CC[C@]2(C)[C@@H]([C@@]5(C)CC[C@@H](C(C)(C)O)O5)[C@H](O)C[C@@]2(C)C4C[C@@H](O[C@@H]2O[C@H](CO)[C@@H](O)[C@H](O)[C@H]2O)C13` (stereo partly drawn) [astragaloside iv], 0.0536.
Regarding `CCOC(=S)SSC(=S)OCC` [dixanthogen], the log came to 0.0954.
Under `CC(C)OC(=O)C(C)(C)Oc1ccc(C(=O)c2ccc(Cl)cc2)cc1` [fenofibrate] stands -0.0673; under `CC(C)(C)CC(C)(C)c1cc(Cc2cc(C(C)(C)CC(C)(C)C)cc(-n3nc4ccccc4n3)c2O)c(O)c(-n2nc3ccccc3n2)c1` [bisoctrizole], -0.124; under `NC(=O)c1cnccn1` [pyrazinamide], -0.0483.
Then `CC(=O)c1ccc[nH]1` [2-acetylpyrrole], with 0.151; and `O=C(CCNNC(=O)c1ccncc1)NCc1ccccc1` [nialamide], with -0.032.
For `Cc1nc2ccccn2c(=O)c1CCN1CCC(C(=O)c2ccc(F)cc2)CC1` [pirenperone], the log is -0.233.
In the case of `COc1cccc2c1C(=O)c1c(O)c3c(c(O)c1C2=O)C[C@@](O)(C(=O)CO)C[C@@H]3O[C@H]1C[C@H](N)[C@@H](O)[C@H](C)O1` [epirubicin hydrochloride], the log was -1.12.
Then `COc1ccc2c(c1)CC[C@@H]1[C@@H]2CC[C@]2(C)[C@@H](O)CC[C@@H]12` [estradiol methyl ether], with -0.00278.
As to `O[C@H]1[C@H](O)[C@@H](O)[C@H](O)[C@@H](O)[C@H]1O` [inositol], the log came out at 0.0605.
For `CCCN(CCC)CCc1cccc2c1CC(=O)N2` [ropinirole hydrochloride], the log turned out to be 0.00202.
Under `C/C=C/c1ccc(OC)cc1` [anethole] stands 0.248; under `C=C(C)[C@@H]1CC[C@]2(CO)CC[C@]3(C)[C@H](CC[C@@H]4[C@@]5(C)CC[C@H](O)C(C)(C)[C@@H]5CC[C@]43C)[C@@H]12` [betulin], 0.0127.
Consider `CC(=O)O[C@H]1C(=O)[C@@]2(C)[C@H]([C@H](OC(=O)c3ccccc3)[C@]3(O)C[C@H](OC(=O)[C@H](O)[C@@H](NC(=O)c4ccccc4)c4ccccc4)C(C)=C1C3(C)C)[C@]1(OC(C)=O)CO[C@@H]1C[C@@H]2O` [paclitaxel], for which the log was found to be 0.318.
Take `CC1=C(/C=C/C(C)=C/C=C/C(C)=C/CO)C(C)(C)CCC1` [retinol]: the log was -0.0698.
Take `O=C(O)c1ccccc1OP(=O)(O)O` [fosfosal]: the log amounted to 0.0728.
In the case of `COC(=O)c1c(C)cc(OC(=O)c2c(C)cc(O)c(C=O)c2O)c(C)c1O` [atranorin], the log worked out at 0.0881.
With `C/C=C(/C(=C/C)c1ccc(O)cc1)c1ccc(O)cc1` [dienestrol], the log is -0.0124.
Take `Cc1ncc([N+](=O)[O-])n1CC(C)O` (stereo not drawn) [secnidazole]: the log is 0.0363.
For `C[C@]12CCC(=O)C=C1[C@@H]1C[C@@H]1[C@H]1[C@@H]3[C@@H]4C[C@@H]4[C@@]4(CCC(=O)O4)[C@@]3(C)CC[C@@H]12` [drospirenone], the log is -0.232.
Then `Nc1cc(N2CCCCC2)nc(N)[n+]1[O-]` [minoxidil], with -0.0548; and `CC1(C)S[C@@H]2[C@H](NC(=O)[C@H](N)c3ccccc3)C(=O)N2[C@H]1C(=O)O` [ampicillin sodium], with -0.393; and `C=C[C@H]1CN2CC[C@H]1C[C@H]2[C@H](O)c1ccnc2ccc(OC)cc12` [quinine sulfate], with 0.0656.
Then `O=C(/C=C/c1ccccc1)c1ccc(O[C@@H]2O[C@H](CO)[C@@H](O)[C@H](O)[C@H]2O)cc1O` [2',4'-dihydroxychalcone 4'-glucoside], with 0.098.
With `O=c1n(CCCN2CCN(c3cccc(Cl)c3)CC2)nc2ccccn12` [trazodone hydrochloride], the log was -0.0403.
For `CC(=O)NCCCCCC(=O)O` [acexamic acid], the log was -0.0193.
